Measured values taken from article doi:10.1101/2024.04.03.24305074.
These are yes or no findings as the source states them, for the method shown. Binding seen in cells or lysates may run through a third protein. Binding can be weak; no strength is given.

Amino acid sequences for entries named in this document (tags omitted). A change or cut given only in a name is not applied to a line headed by its entry.
UniProt P28070: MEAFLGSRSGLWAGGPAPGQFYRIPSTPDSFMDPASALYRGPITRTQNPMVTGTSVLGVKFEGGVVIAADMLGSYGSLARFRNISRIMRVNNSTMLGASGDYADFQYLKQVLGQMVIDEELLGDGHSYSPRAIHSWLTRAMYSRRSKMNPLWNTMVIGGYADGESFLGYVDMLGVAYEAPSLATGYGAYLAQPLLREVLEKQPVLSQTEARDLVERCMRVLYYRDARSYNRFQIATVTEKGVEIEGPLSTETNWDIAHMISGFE

B1: immunoproteasome catalytic subunit β2i (protein, UniProt P40306 40-273)
chain: TTIAGLVFQDGVILGADTRATNDSVVADKSCEKIHFIAPKIYCCGAGVAADAEMTTRMVASKMELHALSTGREPRVATVTRILRQTLFRYQGHVGASLIVGGVDLTGPQLYGVHPHGSYSRLPFTALGSGQDAALAVLEDRFQPNMTLEAAQGLLVEAVTAGILGDLGSGGNVDACVITKTGAKLLRTLSSPTEPVKRSGRYHFVPGTTAVLTQTVKPLTLELVEETVQAMEVE
B2: immunoproteasome catalytic subunit β5i (protein, UniProt P28062 73-276)
chain: TTTLAFKFQHGVIAAVDSRASAGSYISALRVNKVIEINPYLLGTMSGCAADCQYWERLLAKECRLYYLRNGERISVSAASKLLSNMMCQYRGMGLSMGSMICGWDKKGPGLYYVDEHGTRLSGNMFSTGSGNTYAYGVMDSGYRPNLSPEEAYDLGRRAIAYATHRDSYSGGVVNMYHMKEDGWVKVESTDVSDLLHQYREANQ
B3: immunoproteasome catalytic subunit β1i (protein, UniProt P28065 21-219)
chain: TTIMAVEFDGGVVMGSDSRVSAGEAVVNRVFDKLSPLHERIYCALSGSAADAQAVADMAAYQLELHGIELEEPPLVLAAANVVRNISYKYREDLSAHLMVAGWDQREGGQVYGTLGGMLTRQPFAIGGSGSTFIYGYVDAAYKPGMSPEECRRFTTDAIALAMSRDGSSGGVIYLVTITAAGVDHRVILGNELPKFYDE

Molecular target: HTBH-tagged proteasome subunit β7 (PSMB4) (human) (UniProt P28070)
Assay: pull-down

| Binder | binding |
| --- | --- |
| B1 | binds |
| B2 | binds |
| B3 | binds |
